{
  "source": "patent US20120157379A1",
  "about": "“Gastric Inhibitory Peptide Variants and Their Uses” (priority 2009, published 2012)",
  "key": {"[1]": {"biological_target": "T1, GIP receptor (GIPR) (Homo sapiens, UniProt P48546)", "T1 construct": "host or cells: HEK293T", "T1 sequence (P48546 22-466)": "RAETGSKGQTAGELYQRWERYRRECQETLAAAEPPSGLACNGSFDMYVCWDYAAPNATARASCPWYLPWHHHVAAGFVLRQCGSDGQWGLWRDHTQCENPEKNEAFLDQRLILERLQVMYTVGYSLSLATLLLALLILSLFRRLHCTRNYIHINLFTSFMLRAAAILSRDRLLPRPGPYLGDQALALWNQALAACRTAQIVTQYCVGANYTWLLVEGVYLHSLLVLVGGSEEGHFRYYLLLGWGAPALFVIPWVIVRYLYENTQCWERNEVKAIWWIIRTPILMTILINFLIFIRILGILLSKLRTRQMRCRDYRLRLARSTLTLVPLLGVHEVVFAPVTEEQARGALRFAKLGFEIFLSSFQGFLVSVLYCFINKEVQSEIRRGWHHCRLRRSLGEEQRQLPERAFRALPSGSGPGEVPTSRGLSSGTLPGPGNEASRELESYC", "experiment": "Receptor-activation assay: cAMP production in HEK293T cells expressing recombinant GIP receptor", "format": "cell-based", "description": "Vector, transfection, and receptor-activation assay. […] The treated peptides were frozen at −80 C before testing with transfected cells. Receptor-activation activities were assayed based on cAMP production in transfected cells, and were performed as described44. The receptor-activation results were analyzed using the GraphPad Prism 5 package."}, "[2]": {"test_system": "fasting Sprague-Dawley rats", "experiment": "In vivo glucose suppression assay", "parameters": "species or system rat", "description": "The in vivo glucose suppression assay. Eight-week-old Sprague-Dawley rats were fasted overnight for 20 hours. […] Bloods were obtained via the tail vein at select time points after intraperitoneal injection of glucose with a peptide. Glucose levels in the blood were measured by an OneTouch Ultra Blood Glucose Monitoring System and OneTouch Ultra Test Strips (Johnson and Johnson)."}},
  "note": "Not every detail of the peptide structures is certain; ends, links or a residue may be inferred.",
  "data": [
    {"smiles": "CC[C@H](C)[C@H](NC(=O)[C@H](CO)NC(=O)[C@H](Cc1ccc(O)cc1)NC(=O)[C@H](CC(=O)O)NC(=O)[C@H](CO)NC(=O)[C@@H](NC(=O)[C@H](Cc1ccccc1)NC(=O)[C@@H](NC(=O)CNC(=O)[C@H](CCC(=O)O)NC(=O)[C@H](C)NC(=O)[C@@H](N)Cc1ccc(O)cc1)[C@@H](C)O)[C@@H](C)CC)C(=O)N[C@@H](C)C(=O)N[C@@H](CCSC)C(=O)N[C@@H](CC(=O)O)C(=O)N[C@@H](CCCCN)C(=O)N[C@H](C(=O)N[C@@H](Cc1c[nH]cn1)C(=O)N[C@@H](CCC(N)=O)C(=O)N[C@@H](CCC(N)=O)C(=O)N[C@@H](CC(=O)O)C(=O)N[C@@H](Cc1ccccc1)C(=O)N[C@H](C(=O)N[C@@H](CC(N)=O)C(=O)N[C@@H](Cc1c[nH]c2ccccc12)C(=O)N[C@@H](CC(C)C)C(=O)N[C@@H](CC(C)C)C(=O)N[C@@H](C)C(=O)N[C@@H](CCC(N)=O)C(=O)N[C@@H](CCCCN)C(=O)NCC(=O)N[C@@H](CCCCN)C(=O)N[C@@H](CCCCN)C(=O)N[C@@H](CC(N)=O)C(=O)N[C@@H](CC(=O)O)C(=O)N[C@@H](Cc1c[nH]c2ccccc12)C(=O)N[C@@H](CCCCN)C(=O)N[C@@H](Cc1c[nH]cn1)C(=O)N[C@@H](CC(N)=O)C(=O)N[C@H](C(=O)N[C@H](C(=O)N[C@@H](CCC(N)=O)C(=O)N[C@@H](CCCNC(=N)N)C(=O)N[C@@H](CCC(=O)O)C(=O)N[C@@H](C)C(=O)N[C@@H](CCCNC(=N)N)C(=O)N[C@@H](C)C(=O)N[C@@H](CC(C)C)C(=O)N[C@@H](CCC(=O)O)C(=O)N[C@@H](CC(C)C)C(=O)N[C@@H](C)C(=O)NCC(=O)N[C@@H](CCC(N)=O)C(=O)N[C@@H](C)C(=O)N[C@@H](CC(N)=O)C(=O)O)[C@@H](C)O)[C@@H](C)CC)C(C)C)[C@@H](C)CC", "note": "[GIP55G]", "values": [
      {"measurement": "ranking of potency", "setting": "[1]; 0 hr of human serum treatment (normal or complement preserved)", "value": "GIP>GIP55G>GIP55S"},
      {"measurement": "ranking of potency", "setting": "[1]; 6 hr after treatment with human serum (normal or complement preserved)", "value": "GIP=GIP55G=GIP55S"},
      {"measurement": "ranking of potency", "setting": "[1]; 12 hr after treatment with human serum (normal or complement preserved)", "value": "GIP55G>GIP55S≧GIP"},
      {"measurement": "lower potency relative to conventional GIP", "setting": "[1]; EC50 compared with GIP, no serum treatment", "value": "~3", "unit": "fold"},
      {"measurement": "cAMP production at higher dosages as compared to GIP55S", "setting": "[1]; GIPR-expressing HEK293T cells", "value": "significantly higher levels"},
      {"measurement": "cAMP production in GIP receptor-expressing HEK293T cells", "setting": "[1]; cells treated with synthetic peptides for 12 hr, total cAMP in cell lysates", "value": "dose-dependent increases of cAMP production"},
      {"measurement": "EC50 values (-Log EC50, mean ± SEM)", "setting": "[1]; with pooled complement preserved human serum, 0 hours of incubation", "value": "8.51 ± 0.14"},
      {"measurement": "EC50 values (-Log EC50, mean ± SEM)", "setting": "[1]; with pooled complement preserved human serum, 3 hours of incubation", "value": "8.22 ± 0.15"},
      {"measurement": "EC50 values (-Log EC50, mean ± SEM)", "setting": "[1]; with pooled complement preserved human serum, 6 hours of incubation", "value": "7.88 ± 0.09"},
      {"measurement": "EC50 values (-Log EC50, mean ± SEM)", "setting": "[1]; with pooled complement preserved human serum, 12 hours of incubation", "value": "7.86 ± 0.14"},
      {"measurement": "EC50 values (-Log EC50, mean ± SEM)", "setting": "[1]; with pooled human serum, 0 hours of incubation", "value": "8.47 ± 0.14"},
      {"measurement": "EC50 values (-Log EC50, mean ± SEM)", "setting": "[1]; with pooled human serum, 3 hours of incubation", "value": "8.32 ± 0.19"},
      {"measurement": "EC50 values (-Log EC50, mean ± SEM)", "setting": "[1]; with pooled human serum, 6 hours of incubation", "value": "8.02 ± 0.10"},
      {"measurement": "EC50 values (-Log EC50, mean ± SEM)", "setting": "[1]; with pooled human serum, 12 hours of incubation", "value": "7.93 ± 0.09"},
      {"measurement": "blood glucose after exogenous glucose", "setting": "[2]; 100 nmoles/kg peptide with glucose 3.8 g/kg intraperitoneal, 1 hr after injection", "value": "reduced glucose contents in the blood to basal levels"},
      {"measurement": "suppression of hyperglycemia", "setting": "[2]; compared with conventional mature GIP", "value": "suppress hyperglycemias to similar extents"}
    ]}
  ]
}
